PubChem BioAssay AID1259425 | University of Nebraska Medical Center – 2018
This is an unselected part of about 14,000 deposited reagents. Not all columns of the deposit are shown. Not given: the time to read-out.

- Test: 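Seek colon cancer weak points whose silencing resembles KSR1 loss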 (primary screen)
- System: HCT116 human colon cancer cells
- Knock-down reagent: siRNA pool against human genes, 50 nM siRNA
- Measurement: 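After 50 nM siRNA pool, branched-DNA assay measures six marker transcripts per well, minus blank, normalised to the geometric mean of two housekeeping transcripts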
- Scale: BNIP3L mRNA: higher = more BNIP3L transcript after knockdown; NDRG1 mRNA: higher = more NDRG1 transcript after knockdown; BNIP3 mRNA: higher = more BNIP3 transcript after knockdown; ALDOC mRNA: higher = more ALDOC transcript after knockdown

gene knocked down | BNIP3L mRNA, set 1 | NDRG1 mRNA, set 1 | BNIP3 mRNA, set 1 | ALDOC mRNA, set 1
TP53BP2 | 0.0558 | 0.1 | 0.219 | 0.0168
CRTAP | 0.126 | 0.0856 | 0.263 | 0.0348
RBM5 | 0.216 | 0.176 | 0.397 | 0.0184
XK | 0.144 | 0.172 | 0.411 | 0.0368
RNF8 | 0.0643 | 0.119 | 0.214 | 0.0252
KCNA6 | 0.147 | 0.764 | 0.22 | 0.0195
PCBP3 | 0.155 | 0.14 | 0.345 | 0.0648
FUT1 | 0.0389 | 0.0703 | 0.252 | 0.0251
CASK | 0.11 | 0.0924 | 0.257 | 0.0124
UBD | 0.0302 | 0.18 | 0.346 | 0.00827
GSDME | 0.113 | 0.115 | 0.388 | 0.0419
ADCYAP1 | 0.0904 | 0.091 | 0.221 | 0.0198
CEP135 | 0.108 | 0.144 | 0.391 | 0.092
ZNF350 | 0.0637 | 0.303 | 0.31 | 0.0237
RGL3 | 0.135 | 0.0992 | 0.268 | 0.0269
CLTB | 0.178 | 0.00763 | 0.263 | 0.122
HSD17B3 | 0.0707 | 0.165 | 0.254 | 0.0317
NID2 | 0.0623 | 0.11 | 0.275 | 0.00977
PIMREG | 0.12 | 0.0996 | 0.343 | 0.0268
SAT1 | 0.114 | 0.235 | 0.243 | 0.0206
TGS1 | 0.083 | 0.142 | 0.227 | 0.0267
VEZT | 0.106 | 0.423 | 0.468 | 0.00868
SLC35B4 | 0.116 | 0.46 | 0.313 | 0.0294
FASTKD3 | 0.048 | 0.15 | 0.28 | 0.0143
CDC42 | 0.0731 | 0.283 | 0.308 | 0.0147
CDH12 | 0.062 | 0.144 | 0.276 | 0.0143
BORA | 0.264 | 0.321 | 0.5 | 0.0636
USP13 | 0.0461 | 0.0961 | 0.175 | 0.019
SRP14 | 0.171 | 0.933 | 0.381 | 0.0252
HNF1B | 0.0869 | 0.15 | 0.291 | 0.00967
ALDH3B2 | 0.0438 | 0.0535 | 0.28 | 0.0287
PCDH12 | 0.0736 | 0.156 | 0.113 | 0.0131
KISS1 | 0.193 | 0.15 | 0.297 | 0.0145
DEAF1 | 0.149 | 0.358 | 0.527 | 0.0615
TMEM70 | 0.113 | 0.124 | 0.202 | 0.0181
ANKRD16 | 0.0748 | 0.112 | 0.267 | 0.0168
GPSM2 | 0.165 | 0.362 | 0.397 | 0.0208
HHIPL1 | 0.248 | 0.51 | 0.454 | 0.187
ZNF33B | 0.0736 | 0.183 | 0.221 | 0.0198
JHY | 0.142 | 0.13 | 0.248 | 0.0255
PRF1 | 0.168 | 0.0752 | 0.249 | 0.0091
ZNF292 | 0.091 | 0.288 | 0.372 | 0.02
MRPL17 | 0.174 | 0.209 | 0.421 | 0.13
DHRS12 | 0.118 | 0.166 | 0.289 | 0.0424
YAE1 | 0.142 | 0.268 | 0.406 | 0.06
IFT27 | 0.0764 | 0.291 | 0.193 | 0.0227
ATP11A | 0.0676 | 0.301 | 0.348 | 0.043
LIMD2 | 0.0349 | 0.0831 | 0.225 | 0.00523
GPR65 | 0.127 | 0.239 | 0.191 | 0.0484
HIC1 | 0.101 | 0.241 | 0.47 | 0.0167

Single entries from the entries so far.
Value of RGL3 in “ALDOC mRNA, set 1”: 0.0269
Under “NDRG1 mRNA, set 1”, CASK shows 0.0924
Under “BNIP3 mRNA, set 1”, GPSM2 is entered as 0.397
VEZT, NDRG1 mRNA, set 1: 0.423
XK, NDRG1 mRNA, set 1 → 0.172
Value of PRF1 under “NDRG1 mRNA, set 1”: 0.0752
